These are yes or no findings as the source states them, for the method shown. Binding seen in cells or lysates may run through a third protein. These calls come from enrichment with a bait or labelling near it, and not all partners need be listed.
Biological target: T1, glyceraldehyde-3-phosphate dehydrogenase of P. lutzii (recombinant bait or endogenous: the approach is not told for these partners) (Paracoccidioides lutzii) (UniProt Q8X1X3)
T1 sequence: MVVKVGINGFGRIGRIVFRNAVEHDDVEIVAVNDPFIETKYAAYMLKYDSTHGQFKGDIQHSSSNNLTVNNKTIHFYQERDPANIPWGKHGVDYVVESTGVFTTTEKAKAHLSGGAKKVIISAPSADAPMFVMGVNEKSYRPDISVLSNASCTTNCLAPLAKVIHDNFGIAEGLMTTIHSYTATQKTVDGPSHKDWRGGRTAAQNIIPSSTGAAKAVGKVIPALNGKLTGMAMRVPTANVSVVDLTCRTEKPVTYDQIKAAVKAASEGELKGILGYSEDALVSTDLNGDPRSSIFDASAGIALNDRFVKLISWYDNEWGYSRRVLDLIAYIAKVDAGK
Experiment: affinity purification with mass spectrometry + native gel or EMSA; Ni-NTA pull down with recombinant GAPDH or Blue Native PAGE of P. lutzii extracts, each with mass spectrometry; the text shown does not tell which of the two approaches found these partners

binding, binds:
L-threonine 3-dehydrogenase (enzyme), tubulin α-1 chain, aspartate aminotransferase (enzyme), adenosylhomocysteinase (enzyme), citrate synthase (enzyme), fumarylacetoacetase (enzyme), aconitase (enzyme), o-acetylhomoserine thiol-lyase (enzyme), cobalamin-independent methionine synthase (enzyme), cystathionine γ-lyase (enzyme), peroxin-19, malate dehydrogenase (enzyme), ribose-phosphate pyrophosphokinase (enzyme), acyl-CoA dehydrogenase (enzyme), isovaleryl-CoA dehydrogenase (enzyme), pyruvate decarboxylase (enzyme), oxidoreductase 2-nitropropane dioxygenas (enzyme)

From article PMC6629890
